Laboratory results: PubChem BioAssay AID1508600 (Functional Genomics Laboratory (NCATS/FGL), 2020)
Screen size: about 53,000 sequences; about 3,700 (7%) were called active.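 Rule for the calls: active = gene knockdowns whose robust z-score for IL-1 alpha signal is at least 2 or at most -2, so actives lie on both sides; inactive = the rest.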 Some of the results follow.

Assay: Components of the Cytosolic LPS Sensing Pathway: Gene Identification via Genome-wide siRNA Screen;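 note: robust z of the log signal after scaling to non-targeting control siRNA wells of the plate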
Settings: RAW264.7 macrophages, IL-1a HTRF, actives lie on both sides, screened at 100 nM (by protocol), cells primed 5 h with Pam3CSK4 first
Summary of the method: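 Cells (RAW264.7, 1×10^4 per well) were transfected with siRNA at 100 nM and cultured 48h at 37 degrees C. Pam3CSK4 was added for 5 hours; LipidA transfection followed for 24 hour. IL-1a was then measured by HTRF.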

Question: For GGGUUCUGGGAAGGUAUAUTT against Olfr705, which z-score is on record?
Answer: active: -2.54

Question: Which z-score does the source give for GGCGGAAAUUCCAAUGGUGTT against Fn1 here?
Answer: inactive: 0.284

Question: For GCCCUACAGCAGACUAGAATT against Vax2, which z-score is on record?
Answer: inactive: -1.5

Question: With CCAAAGUUUUAUCAGUUUGTT against Gpr87 as the sequence, how does the z-score read?
Answer: inactive: 0.653

Question: With AGCAGUUGGCUUUUCUAACTT against Paqr9 as the sequence, how does the z-score read?
Answer: inactive: 1.87

Question: With GCGAAGAAGAAGUCGCUCCTT against Clk2 as the sequence, how does the z-score read?
Answer: inactive: 0.403

Question: With CCAGUGCCUAUUAAAAUGCTT against Sox30 as the sequence, how does the z-score read?
Answer: inactive: -0.27

Question: Which z-score does the source give for GGAAUAGUAGCAAAACAGATT against Ppm1l here?
Answer: inactive: -0.612

Question: For GGUUCCUGAAAUCAAAUAUTT against Rgs1, which z-score is on record?
Answer: inactive: 1.62

Question: Which z-score does the source give for GGCUCAGCUUUUCUGUCAUTT against Cd200r3 here?
Answer: inactive: -1.26

Question: Which z-score does the source give for GGAUUGUCCUUCGACUACGTT against Itgb3 here?
Answer: inactive: 0.47

Question: With GCUGACCAGUAAGUUGUAUTT against Zswim5 as the sequence, how does the z-score read?
Answer: inactive: -0.612

Question: For GGAAAAUUGAGAUUUCUGCTT against Smim14, which z-score is on record?
Answer: inactive: 0.0777

Question: For “GGUCUCAGCAAUCUGUUCCTT against 1700029I15Rik”, which z-score is on record?
Answer: active: -2.15

Question: Which z-score does the source give for GGUACAAAAGUUAAAGAGATT against Uchl5 here?
Answer: inactive: -0.55

Question: With CGGCUUUGAAGUGGUGUAUTT against Smad9 as the sequence, how does the z-score read?
Answer: inactive: 1.66

Question: With CCCAAUAGGCAACUCCGAATT against Fam229b as the sequence, how does the z-score read?
Answer: inactive: 0.639

Question: For GGUCUUUAGAAUUAGGCUCTT against Pml, which z-score is on record?
Answer: inactive: 0.188

Question: For CGAGAAUAUGUGAGAGCUUTT against Dcaf13, which z-score is on record?
Answer: inactive: -0.793

Question: For GGUAGAAAGUAACAGGAAGTT against Adhfe1, which z-score is on record?
Answer: inactive: -0.523

Question: With GGUUAAUAGCAACAACCAGTT against Kifc3 as the sequence, how does the z-score read?
Answer: inactive: 1.61

Question: Which z-score does the source give for GCCCAGGACAAUAUAUCCGTT against Myl12b here?
Answer: inactive: 0.867

Question: Which z-score does the source give for GCCAUAUCAACUAGUGCAGTT against Siglech here?
Answer: active: 2.36

Question: With GGAAAUAGCUAAUCAGAAATT against Sap130 as the sequence, how does the z-score read?
Answer: inactive: 0.832

Question: With GGCUCAGAUCUUUGACUACTT against Pnp as the sequence, how does the z-score read?
Answer: inactive: -0.232

Question: For GGUGCUUUAUUCAUAAAGATT against Gprc5b, which z-score is on record?
Answer: inactive: -0.305

Question: For CCUAAUUGAAAUCAGCAGUTT against Hip1r, which z-score is on record?
Answer: inactive: 1.14

Question: For CGCGGAGGACUACAAUGAGTT against Katnb1, which z-score is on record?
Answer: inactive: 0.668

Question: Which z-score does the source give for GCAUUAAGGUCUUACUCCATT against Rufy1 here?
Answer: inactive: 0.828

Question: Which z-score does the source give for GGUGAAUGAGGACUCUGGGTT against Dcps here?
Answer: inactive: -1.07

Question: Which z-score does the source give for CCAGAUCUCAAAAAUCCAUTT against Mok here?
Answer: inactive: -0.538

Question: For CCCAGAUUACCGUAAGCGATT against Jup, which z-score is on record?
Answer: inactive: 0.264

Question: Which z-score does the source give for CGGGAAGUAAACAUUUCCATT against Rassf6 here?
Answer: inactive: 0.527

Question: For GGAACAAACUUGAACUCUCTT against Srsf11, which z-score is on record?
Answer: inactive: 1.2

Question: With GGACCUUCGAAGUGCUAUGTT against Apbb1 as the sequence, how does the z-score read?
Answer: inactive: -0.32

Question: With GCCCAUGAAUUUUUACUUATT against Prr14l as the sequence, how does the z-score read?
Answer: inactive: 0.341

Question: For GCAUUCAGAAAGUGUAUAATT against Tspan3, which z-score is on record?
Answer: inactive: -0.0953

Question: For GGUAUCAGCUUCAGUAGCCTT against Zfp668, which z-score is on record?
Answer: inactive: -0.103

Question: For GGACUACAAGGAUAACCCGTT against Sugp1, which z-score is on record?
Answer: inactive: -1.05

Question: Which z-score does the source give for GCUACUGAGAACAUAAACCTT against Hoxd4 here?
Answer: inactive: 0.0889

Question: With GGGUGAGAAUGACCACUUUTT against Kcnq2 as the sequence, how does the z-score read?
Answer: inactive: -0.846

Question: For UGGGUGAUCUCUGUAAUAATT against Defb50, which z-score is on record?
Answer: inactive: -0.404

Question: For GGGCCAGACUCCAUACUAUTT against Arid1a, which z-score is on record?
Answer: active: 3.71

Question: For GCUCGGUUUACUUAAAGUGTT against Alg2, which z-score is on record?
Answer: inactive: -0.0505

Question: Which z-score does the source give for GGAUUUUCACCGGAUAAAATT against Mtfr1l here?
Answer: inactive: -0.322

Question: Which z-score does the source give for GGUUUAUCUCAAGUCUCAATT against Wdr74 here?
Answer: inactive: -0.446

Question: Which z-score does the source give for CCCGUGCUGAAGCUAAUAGTT against Tkfc here?
Answer: inactive: -0.493

Question: For ACACUCAUAGUCCAUUGUUTT against Xkr9, which z-score is on record?
Answer: inactive: -0.564

Question: For GGACUGGUAGUUCUGAUUUTT against Ppm1g, which z-score is on record?
Answer: inactive: -0.683

Question: For GCACAUCACAAGAAUUACUTT against Lhfpl1, which z-score is on record?
Answer: inactive: -0.0486

Question: Which z-score does the source give for GCACUGAAGUUUAGUAAAATT against Stag3 here?
Answer: inactive: -1.11

Question: For GGAUGAAGACAGUCAAAUGTT against Lypd3, which z-score is on record?
Answer: inactive: 0.261

Question: With GCUAAAAACAACUAGGAAATT against Wdr60 as the sequence, how does the z-score read?
Answer: inactive: 0.391

Question: With GGAAGAAGACACAAAAAAUTT against Rcan3 as the sequence, how does the z-score read?
Answer: active: 3.53

Question: With CCGUACGAUGAUAAUACCATT against Clec4a3 as the sequence, how does the z-score read?
Answer: active: 2.29

Question: With CCUCGCCUGUACUAGCUAUTT against Rilp as the sequence, how does the z-score read?
Answer: inactive: -0.501

Question: For GCAUGCAACUAUUUAUCCATT against Zfr, which z-score is on record?
Answer: inactive: -1.87

Question: Which z-score does the source give for GGAGGAGUGCAAGGACUUUTT against Ift20 here?
Answer: inactive: 0.146

Question: Which z-score does the source give for GGGCUGGUUCGAGCCAAUATT against Apoe here?
Answer: inactive: 1.62

Question: Which z-score does the source give for GCCUCAUCAAUCCACUGCATT against Mtss2 here?
Answer: inactive: -0.956

Question: With GGUGGCUUUGGCUGCAUCUTT against Vrk1 as the sequence, how does the z-score read?
Answer: inactive: -0.669

Question: With GGCCUCUUCACUUAUGUAUTT against Inha as the sequence, how does the z-score read?
Answer: inactive: -0.22

Question: For GGUUCAUUUUAACUGUAGATT against Lilra6, which z-score is on record?
Answer: inactive: -0.752

Question: For GCCUUCAUUAUUUUAAUGCTT against Ilf3, which z-score is on record?
Answer: inactive: 0.0185

Question: With CCAUCAAUGUGCAGAAAUCTT against Zfp871 as the sequence, how does the z-score read?
Answer: inactive: -0.893

Question: Which z-score does the source give for GGGAGGCUGUUGUCAAUCCTT against Krtap5-4 here?
Answer: inactive: 0.368

Question: Which z-score does the source give for GGAAAAAUUUCCAGAGGUUTT against Pnpt1 here?
Answer: inactive: 0.267

Question: With “GGUUAGUGCUCCAUUAUUCTT against D3Ertd751e” as the sequence, how does the z-score read?
Answer: inactive: -1.22

Question: Which z-score does the source give for GGAAAAGAUCACCAGGAGCTT against Pin1 here?
Answer: inactive: -0.507
